{"source": "PubChem BioAssay AID449762", "about": "(Southern Research Specialized Biocontainment Screening …, 2010)", "note": "Hit rate of the full screen: of about 330,000 compounds, about 1,900 (0.58%) were called active. Only results without a clear call are listed here; the source files them as inconclusive. Rule as the data show it: inconclusive = inhibition above about 70% without an active follow-up result; inactive = below that.", "data": [{"test": "M. tuberculosis growth inhibition, HTS (AID 449762);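 also: bacterial growth assessed after seven days of incubation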", "conditions": "M. tuberculosis H37Rv growth inhibition, 7H9 media; at 25 µM; stronger effect = higher value", "values": [{"smiles": "CCCCCOc1ccc(NP(C)(=O)Oc2ccc(Cl)cc2Cl)cc1", "note": "(configuration not stated)", "inhibition": "inconclusive: 91.7%"}, {"smiles": "O=[N+]([O-])c1cc([N+](=O)[O-])c(Nc2ccccn2)c([N+](=O)[O-])c1", "inhibition": "inconclusive: 100%"}]}]}
